According to paper PMC8533726:
Results are given in words; binding and its absence hold for the method and conditions named. Some entries that bind do so weakly or less than the wild type.

Amino acid sequences for entries named in this document (tags omitted).
UniProt P41231: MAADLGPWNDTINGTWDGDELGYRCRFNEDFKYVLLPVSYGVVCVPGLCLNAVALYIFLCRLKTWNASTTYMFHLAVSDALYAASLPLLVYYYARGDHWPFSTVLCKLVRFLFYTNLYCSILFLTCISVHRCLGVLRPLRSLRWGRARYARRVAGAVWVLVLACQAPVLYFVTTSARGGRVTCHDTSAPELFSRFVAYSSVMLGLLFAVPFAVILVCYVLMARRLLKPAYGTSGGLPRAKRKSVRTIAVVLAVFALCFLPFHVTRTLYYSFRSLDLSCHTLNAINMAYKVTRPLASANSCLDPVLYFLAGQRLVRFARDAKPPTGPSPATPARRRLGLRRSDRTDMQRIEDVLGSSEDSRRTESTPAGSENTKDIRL

Molecular target: purinergic receptor Y2 (P2Y2) (human (endogenous in AsPC-1)) (UniProt P41231)
Experiment: qPAINT (quantitative DNA-PAINT single-molecule super-resolution microscopy); fixed, permeabilised AsPC-1 cells labelled with DNA-coupled anti-P2Y2 antibody; TIRF; DBSCAN clusters of localisations, copy number per cluster from dark times (qi1 0.012 Hz); control cells, cells treated with 100 uM ATP (agonist) or 5 uM AR-C 118925XX (antagonist) for 1 h

binding: binds
Substance: purinergic receptor Y2 (P2Y2) (from UniProt P41231 1-377)
